# Experimental data as given in PubChem BioAssay AID1347076 (National Center for Advancing Translational Sciences (NCATS), 2019).
# The campaign covered roughly 400,000 compounds. About 13,000 (3.2%) were called active. Inconclusive means that the source gave no clear call. Such entries were picked first, then a sample of the others. Calls come from the whole dose curve; as a rule, active = well fitted cell-killing curve with a large enough effect; inconclusive = small, poorly fitted or top-dose-only effect, or effect the other way; inactive = flat fitted curve, though single readings scatter. Where the call is inconclusive, the potency comes from a doubtful curve fit.
# Assay: qHTS assay for MDR1-selective chemotherapeutics: Primary screen using the drug-selected MDR subline cells KB-V1; note: nearly all actives have a fitted effect of over 60% in size
# Details: KB-V1 MDR cells viability, CellTiter-Glo, 72 h; activity change, negative = cytotoxicity: at 46.1 µM (top of the series)
# How it was run: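 In this primary screen, KB-V1 cells overexpressing P-gp are incubated with library compounds (lowest to highest concentration) for 72 h at 37 degrees C before a luminescent ATP viability read.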
# % is set by controls: 0 for no effect and ±100 for the full control effect; potency is the fitted concentration of half-maximal effect.
Structure (SMILES),"activity change, negative = cytotoxicity",Potency
CCOC(=O)N1CCN(c2nc3ccccn3c(=O)c2C=O)CC1,inactive: -14.1%,–
Cc1cc([N+](=O)[O-])ccc1NCc1ccco1,–,"inconclusive: 29.1 µM [rising, single point]"
O=C(NC(=S)N1CCN(c2ccccn2)CC1)c1ccco1,–,"inconclusive: 0.206 µM [rising, full curve, poor fit]"
COc1ccc(NC(=O)c2sc(=O)n(Cc3ccc(SC)cc3)c2C)cc1OC,–,"inconclusive: 4.61 µM [cytotoxic, partial curve]"
Cc1ccccc1CC1(CO)CCCN(C(=O)c2cccc(Cl)c2)C1 (configuration not stated),–,"inconclusive: 13 µM [cytotoxic, single point]"
Cc1nnc(SC(C)C(=O)NC2CCCCC2)s1 (configuration not stated),inactive: 2.4%,–
CC(C)OC(=O)C(C(=O)C(F)(F)F)c1cc(NS(=O)(=O)c2ccc3c4c(cccc24)C(=O)N3)ccc1O (configuration not stated),–,"inconclusive: 11.6 µM [rising, partial curve]"
Cc1nnc(NC(=O)c2ccc(S(=O)(=O)N3CCCCC3C)cc2)o1 (configuration not stated),–,"inconclusive: 7.31 µM [cytotoxic, partial curve, poor fit]"
CCN(CC)S(=O)(=O)c1ccc(N2CCN(C)CC2)c(NC(=O)Nc2ccc(C)cc2)c1,inactive: 6.88%,–
C=CCn1c(CCNC(=O)c2cccs2)nnc1SCC(=O)Nc1cccc(Cl)c1C,–,"inconclusive: 23.1 µM [cytotoxic, partial curve]"
Cc1noc(C)c1S(=O)(=O)N(C)C[C@H]1Oc2c(NC(=O)NC3CCCCC3)cccc2C(=O)N([C@H](C)CO)C[C@@H]1C,inactive: 28.2%,–
CC(OC(=O)c1ccc2c(c1)C(=O)N(Cc1ccncc1)C2=O)C(=O)Nc1cccc(Cl)c1Cl (configuration not stated),–,"inconclusive: 8.2 µM [rising, partial curve, poor fit]"
O=c1c2ccccc2c(-c2ccccc2)nn1-c1ccc(Cl)c(Cl)c1,–,"inconclusive: 23.1 µM [cytotoxic, partial curve]"
COc1cc(C)c(CN2CCC(n3nccc3NC(=O)C3CC3)CC2)cc1C,–,"inconclusive: 18.4 µM [cytotoxic, single point]"
Cc1ccc(/C=C(\C#N)C(=O)N2CCCC2)c(C)c1,inactive: -0.73%,–
Cc1nn(-c2ccccc2)c(C)c1/C=C/C(=O)OCC(=O)NC1CCS(=O)(=O)C1 (configuration not stated),–,"inconclusive: 20.6 µM [cytotoxic, partial curve]"
O=[N+]([O-])c1cc(Cl)c2cccnc2c1O,–,"inconclusive: 14.6 µM [cytotoxic, single point]"
Clc1cccc(/C=N\Nc2nccs2)c1,–,"inconclusive: 18.4 µM [cytotoxic, single point]"
CN(CC(=O)O/N=C(\N)c1ccccn1)S(=O)(=O)c1cc(Cl)ccc1Cl,–,"inconclusive: 6.51 µM [cytotoxic, partial curve]"
Cc1cc(C)c(C)c(OCC(=O)Nc2ccc(S(=O)(=O)Nc3nc(C)cc(C)n3)cc2)c1,inactive: 2.77%,–
COc1ccc(N2CCN(C(=O)C(=O)c3cc(OC)c(OC)c(OC)c3)CC2)cc1,–,"inconclusive: 10.3 µM [cytotoxic, partial curve]"
COc1cccc(/C=C2\SC(=S)N(CCCC(=O)N3CCOCC3)C2=O)c1,–,"inconclusive: 29.1 µM [cytotoxic, single point]"
O=C(C1CCN(S(=O)(=O)c2ccc(-n3cnnn3)cc2)CC1)N1CCCCC1,–,"inconclusive: 32.6 µM [cytotoxic, partial curve, poor fit]"

# Complete entries as entered above. Values in the order: activity change, negative = cytotoxicity | Potency
# C=CCn1c(CCNC(=O)c2cccs2)nnc1SCC(=O)Nc1cccc(Cl)c1C in the list: – | inconclusive: 23.1 µM [cytotoxic, partial curve]
# COc1ccc(N2CCN(C(=O)C(=O)c3cc(OC)c(OC)c(OC)c3)CC2)cc1 in the list: – | inconclusive: 10.3 µM [cytotoxic, partial curve]

# Additional results

Structure (SMILES),"activity change, negative = cytotoxicity",Potency
CCC(=O)N1CCc2cc(Br)cc(S(=O)(=O)CCC(=O)N3CCN(c4ccc(F)cc4)CC3)c21,–,"inconclusive: 29.1 µM [cytotoxic, single point]"
O=C(c1cc(C2CCCCN2S(=O)(=O)Cc2ccccc2)on1)N1CCOCC1 (configuration not stated),inactive: 6%,–
N#Cc1ccccc1OCC(=O)Nc1cc(S(=O)(=O)N2CCCCC2)ccc1N1CCOCC1,–,"inconclusive: 10.3 µM [cytotoxic, partial curve, poor fit]"
COc1ccccc1NC(=O)CCn1nc(-c2ccccc2OC)c2c(C)cc(C)nc21,–,"inconclusive: 23.1 µM [cytotoxic, single point]"
CC(=O)OC(C(=O)NC1CCCCC1)c1cccc(F)c1 (configuration not stated),–,"inconclusive: 16.4 µM [rising, single point]"
O=C(/C=C/c1cccc(F)c1)NCCCn1ccnc1,inactive: 1.06%,–
CCn1nc(C)c(/C=N/NC(=O)CSc2ccccn2)c1C,inactive: 4.64%,–
COc1ccc2c(c1)c(C(O)CN1CCN(Cc3ccc4c(c3)OCO4)CC1)c(C)n2C (configuration not stated),inactive: -23.3%,–
CCc1ccccc1OCC(=O)Nc1cccc(S(=O)(=O)NC2=NCCCCC2)c1,–,"inconclusive: 14.6 µM [cytotoxic, partial curve, poor fit]"
CCCCC1C2=C(CC(C)(C)CC2=O)OC2=C1C(=O)CC(C)(C)C2,–,"inconclusive: 8.2 µM [cytotoxic, partial curve]"
CCC(=O)c1ccccc1OCCCn1cncn1,–,"inconclusive: 29.1 µM [cytotoxic, single point]"
O=C(Nc1ccc(S(=O)(=O)Nc2ccc(F)cc2)cc1)c1ccc(CN2CCOCC2)cc1,–,"inconclusive: 9.2 µM [cytotoxic, partial curve]"
O=[N+]([O-])c1ccc(N2CCOCC2)cc1NC(c1ccccc1)c1ccccc1,–,active: 16.4 µM
CCOC(=O)c1c(C)oc2c(F)c(F)c(F)c(F)c2c1=O,–,"inconclusive: 2.59 µM [cytotoxic, full curve, poor fit]"
O=C(CCNS(=O)(=O)c1ccc2[nH]c(=O)oc2c1)Nc1cccc(Br)c1,inactive: 22.7%,–
CCOc1ccc(NC(=O)c2ccc(CN3CCc4ccccc4C3)cc2)cc1,–,"inconclusive: 0.517 µM [cytotoxic, full curve, poor fit]"
COc1c2c(c(OC)c3c1c(=O)c1ccccc1n3C)OCO2,–,"inconclusive: 16.4 µM [cytotoxic, single point]"
CC1(OC(=O)CCc2ccccc2)C(=O)C=C2C=C(c3ccc(C#N)cc3)N(CCN3CCOCC3)C=C2C1=O (configuration not stated),inactive: 6.62%,–
Cc1cc(C)c(NC(=O)CSc2nnc(-c3ccncc3)n2Cc2ccco2)c(C)c1,–,"inconclusive: 20.6 µM [cytotoxic, single point]"
COc1ccc(C(=O)C2CCCN(Cc3cccn3-c3ccc(Cl)cn3)C2)c(OC)c1 (configuration not stated),–,active: 11.6 µM
Cc1nn(-c2ccccc2)c(NC(=O)c2cccs2)c(-c2ccc(Cl)cc2)c1=O,–,"inconclusive: 16.4 µM [cytotoxic, partial curve, poor fit]"
O=C(Nc1nnc(C(F)(F)F)s1)c1ccc(Br)s1,–,active: 2.91 µM
O=C1CC2(CCN(C(=O)c3c(F)cccc3F)CC2)Oc2ccccc21,–,"inconclusive: 18.4 µM [cytotoxic, single point]"

Structure (SMILES),"activity change, negative = cytotoxicity",Potency
CCn1cc(C(=O)OCc2cccc(Br)c2)c(=O)c2ccc(C)nc21,–,"inconclusive: 8.2 µM [cytotoxic, partial curve]"
O=S(=O)(c1ccccc1)N1CCC(n2cnc3ccccc32)CC1,–,"inconclusive: 13 µM [cytotoxic, partial curve]"
Cc1ccc(/C=C2\SC(=S)N(CCCC(=O)NC3CCCC3)C2=O)cc1,inactive: -1.46%,–
CCN(CC)CCCN1CC(O)=C(c2nc3ccccc3s2)C1=N,inactive: 3.78%,–
Cn1c(N2CCN(c3ccccn3)CC2)nc2c1c(=O)n(Cc1ccc(Cl)cc1)c(=O)n2C,–,"inconclusive: 9.2 µM [cytotoxic, partial curve]"
Cc1ccc(CN2C(=O)c3ccccc3NC23CCN(Cc2ccccc2)CC3)cc1,–,"inconclusive: 25.9 µM [cytotoxic, partial curve, poor fit]"
Cc1ccc(Cl)cc1NS(=O)(=O)c1cc2c(cc1Cl)CCC(=O)N2,inactive: 0%,–
O=c1cc(N2CCc3ccccc32)[nH]c(=O)n1-c1ccc(Br)cc1,–,"inconclusive: 0.0046 µM [rising, full curve, poor fit]"
COc1cccc(-c2nc(CC(=O)O)cs2)c1OC,–,"inconclusive: 10.3 µM [rising, partial curve, poor fit]"
O=C(CC(=O)NCc1ccc(Cl)cc1)NCc1ccccc1,inactive: 19.6%,–
O=C(C1CCC1)N1CCc2cc(S(=O)(=O)N3CCCCC3)ccc21,inactive: -23.6%,–
Cn1cnc([N+](=O)[O-])c1S(=O)(=O)Oc1ccccc1,–,"inconclusive: 29.1 µM [cytotoxic, single point]"
CC(=O)N1CC(C)c2scc(C)[n+]2-c2ccccc21 (configuration not stated),–,"inconclusive: 29.1 µM [rising, single point]"
COc1ccc(C2C(C(=O)NCCCN3CCOCC3)c3ccccc3C(=O)N2c2ccc(OC)cc2)cc1 (configuration not stated),–,"inconclusive: 4.61 µM [rising, full curve]"
CCN(CC)S(=O)(=O)c1ccc(N(C)CCc2ccc(OC)c(OC)c2)nc1,–,"inconclusive: 23.1 µM [cytotoxic, partial curve]"
COc1ccc2cc3cc(C(=O)NCCCN4CCOCC4)oc3nc2c1,inactive: -19.4%,–
COC(=O)[C@@H]1C[C@@]2(O)[C@@H](O)[C@@H](O)[C@@H](O)C[C@H]2N1Cc1ccc(-c2ccccc2)cc1,–,"inconclusive: 16.4 µM [rising, single point]"
O=C1NCCCc2c1oc1ccc(O)cc21,–,"inconclusive: 29.1 µM [cytotoxic, single point]"
COc1ccc2nc(SCC(=O)Nc3ccc4c(c3)OCCO4)[nH]c2c1,–,"inconclusive: 20.6 µM [cytotoxic, partial curve]"
CCNC(=O)CC1C(=O)N(c2ccc(OC)cc2)C(=O)N1CCOC (configuration not stated),–,"inconclusive: 7.31 µM [rising, partial curve, poor fit]"
O=C(NCCN1CCOCC1)c1ccc(Cl)c([N+](=O)[O-])c1,inactive: 12.7%,–
